# Measured values: PubChem BioAssay AID2685 (National Center for Advancing Translational Sciences (NCATS), 2010)
# The list shows a part of the results. These are further read-outs of the screen, such as a control signal, another cell line or another target. No call is given for them. The list favours compounds with an active or inconclusive main result. Potencies come from curve fits of mixed quality, noted in brackets.
# Test: qHTS Assay for Lipid Storage Modulators in Drosophila S3 Cells;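 for cell number change: cells counted by Cell Tracker Red CMTPX staining in the red channel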
# Conditions: BODIPY lipid droplet fluorescence, 18-24 h; for cell number change: measured here: cell count max response, cells fed with added oleic acid
# How it was run: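 Drosophila S3 cells got compounds at several concentrations plus oleic acid (400 uM solution). Laser-scanning cytometry with 488 nm excitation read lipid droplets at 500-530 nm and cells at 575-640 nm. Percent activity was relative to 20 uM Triacsin C.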
# [1] = measured here: lipid fluorescence (Fed channel) AC50, cells fed with added oleic acid
# [2] = measured here: cell number channel AC50, cells fed with added oleic acid
smiles,measurement,setting,value
O=C(c1ccc(F)cc1)c1cnc(Nc2ccccc2)s1,cell number change,,21.3%
same,AC50,[1],"0.651 µM [falling, single point]"
CC(NC(=O)[C@H](C)N1C(=O)N2CCc3c([nH]c4ccccc34)[C@@]2(C)C1=O)c1ccccc1 (stereo partly drawn),cell number change,,0.291%
same,AC50,[1],"2.31 µM [falling, partial curve, poor fit]"
CCc1ccc(NC2CC(=O)N(CCc3ccc(OC)c(OC)c3)C2=O)cc1 (stereo not drawn),cell number change,,44.2%
CCc1ccc(/C=C2/Sc3ccccc3N(CC(=O)NCCCOC)C2=O)cc1,AC50,[2],"0.731 µM [falling, single point]"
CCOC(=O)C1C(=O)NCC2CCCC21 (stereo not drawn),cell number change,,-16.5%
same,AC50,[1],"2.06 µM [falling, partial curve, poor fit]"
C=CCSC1=N/C(=C/c2ccsc2)C(=O)N1c1ccccc1,cell number change,,12.2%
same,AC50,[1],"1.16 µM [falling, single point]"
CCOc1ccc(C(O)(c2ccccc2OC)C(CN2CCCC2)c2ccccc2)cc1 (stereo not drawn),cell number change,,-10.1%
same,AC50,[1],"29.1 µM [rising, single point]"
Cc1ccc(C)c(OCC(=O)Nc2ccc(N3CCOCC3)cc2N2CCOCC2)c1,cell number change,,18.8%
same,AC50,[1],"29.1 µM [rising, partial curve, poor fit]"
CCOc1cccc2c1OC1(C)CC2NC(=O)N1c1cccc(Cl)c1 (stereo not drawn),cell number change,,-23.9%
same,AC50,[1],"10.3 µM [falling, partial curve, poor fit]"
CCc1nnc(NC(=O)CSc2ccc(-c3nc4ccc(C)cc4[nH]3)cn2)s1,cell number change,,-29.7%
same,AC50,[1],"29.1 µM [falling, single point]"
CCOC(=O)c1sc2nc3n(c(=O)c2c1C)CCC(C)CC3 (stereo not drawn),cell number change,,6.66%
same,AC50,[1],"0.00411 µM [falling, full curve, poor fit]"
CCC(=O)Nc1ccc2c(c1)ncn2C,cell number change,,-9.6%
same,AC50,[1],"4.11 µM [falling, full curve]"
O=C(NCc1nnc(SCC(=O)N2CCCCC2)o1)c1c(F)cccc1F,cell number change,,-26.4%
same,AC50,[1],"7.94 µM [falling, partial curve]"
COc1cc(C#Cc2c(-c3cncn3C)n(C)c3ccc(-c4cnc(OC)nc4)cc23)cc(OC)c1,cell number change,,-70.5%
same,AC50,[2],"5.8 µM [falling, single point]"
same,AC50,[1],"0.411 µM [rising, partial curve]"
CCCN(C(=O)c1cc(C)ccc1C)c1c(N)n(Cc2ccccc2)c(=O)[nH]c1=O,cell number change,,-68.3%
same,AC50,[2],"29.1 µM [falling, single point]"
same,AC50,[1],"0.291 µM [rising, partial curve, poor fit]"
COc1cc2cc(C(c3nnnn3C3CCCCC3)N(C)C3CCCCC3)c(=O)[nH]c2cc1OC (stereo not drawn),cell number change,,-58.9%
same,AC50,[2],"29.1 µM [falling, single point]"
same,AC50,[1],"18.4 µM [falling, single point]"

# As a working copy, some entries already given.
smiles,measurement,setting,value
Cc1ccc(C)c(OCC(=O)Nc2ccc(N3CCOCC3)cc2N2CCOCC2)c1,AC50,[1],"29.1 µM [rising, partial curve, poor fit]"
CCOc1cccc2c1OC1(C)CC2NC(=O)N1c1cccc(Cl)c1 (stereo not drawn),cell number change,,-23.9%
